These results are taken from publication PMC7819943, “Rice protein-binding microarrays: a tool to detect cis-acting elements near promoter regions in rice”.

By UniProt entry, the sequences of proteins in these tests, tags left out.
UniProt Q0JBA9, entry or part of it: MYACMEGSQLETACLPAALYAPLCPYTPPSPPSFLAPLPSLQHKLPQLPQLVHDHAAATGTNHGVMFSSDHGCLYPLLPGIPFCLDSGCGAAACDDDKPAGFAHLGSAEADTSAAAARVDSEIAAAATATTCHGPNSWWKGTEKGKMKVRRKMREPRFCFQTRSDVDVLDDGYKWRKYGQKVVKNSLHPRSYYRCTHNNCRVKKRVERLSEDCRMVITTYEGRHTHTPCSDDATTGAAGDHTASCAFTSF

The list shows a part of the results.

For this assay, the target named is OsWRKY34 (Oryza sativa, UniProt Q0JBA9 1-250). Description: protein-binding microarray (RPBM); PBS, 2% BSA, 51.3 ng/ul salmon testes DNA, 50 uM zinc acetate, 200 nM TF, 25 C, 1 h; high values mean tight binding. The conditions noted are these: protein: recombinant; tags: N-terminal polyhistidine and DsRed monomer fusion (pET32a); label: CyDye5-dUTP incorporated in the synthesized complementary strand; 3' TTTTT single-stranded linker to array surface; dsDNA, one strand shown. The gist of the method:
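Binding signal is reported as fluorescence intensity per feature (arbitrary units) from an Axon 4000B scanner. Incubation used 200 nM of each Ni–NTA-purified, N-terminally polyhistidine- and DsRed-fused transcription factor from E. coli BL21-CodonPlus on a double-stranded custom Agilent array for 1 h at 25 °C, with 50 µM zinc acetate in the buffer, followed by washing.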
Regarding “ACACCATCGTTCAGCTTGTTGTCGTCTCATTGGTCAACACCGGAGTCACCTAGTGCAG”, the binding signal was 10400 fluorescence intensity (a.u.).
As for “ATCCTGCCATATATTCGGCCAGAATTGTTTTCTTCAATTTCGGAGTCACCTAGTGCAG”, the figure is 9600 fluorescence intensity (a.u.); as for “GAGTACTACTGCTGCAACTTTAATAACATTCAACAATGTTCGGAGTCACCTAGTGCAG”, 9540 fluorescence intensity (a.u.); as for “ATTCAATCTCATTTGCCTGATTACAGTTAGATACTGACATCGGAGTCACCTAGTGCAG”, 8090 fluorescence intensity (a.u.).
Then “GTGTTGCATATACTTGTTCCCACACAACTCATGTCTATCACGGAGTCACCTAGTGCAG”, with 8550 fluorescence intensity (a.u.); and “CTCTGTTTTACAATGTAAGTCATTCTAGCATTTTCCACATCGGAGTCACCTAGTGCAG”, with 9780 fluorescence intensity (a.u.).
In the case of “CCCTCCGTTTCAAAATGTTTGATACCGTTGACTTTTTAGCCGGAGTCACCTAGTGCAG”, the binding signal was 21200 fluorescence intensity (a.u.).
Turning to “AACCTTTTCGCGCGCTTTTGACATCATCCTTTTGCTTGGCCGGAGTCACCTAGTGCAG”, the binding signal is 12200 fluorescence intensity (a.u.).
Regarding “TTAACCCCGTCACGTCACCTCTCTCTCTCTCTACCGTCTCCGGAGTCACCTAGTGCAG”, the binding signal was 10400 fluorescence intensity (a.u.).
As for “GCCTCCTAACCACGTCGGTTTCATTGCCCTGTCGCTGACCCGGAGTCACCTAGTGCAG”, the figure is 10700 fluorescence intensity (a.u.); as for “GGTCACACCGTTCCAAGCCACTCTCACACGCACGCGCGTCCGGAGTCACCTAGTGCAG”, 9090 fluorescence intensity (a.u.).
As for “GCATTCTTCCCATCGTTTCCCAACTTCATATGTAGTATATCGGAGTCACCTAGTGCAG”, the binding signal was 8270 fluorescence intensity (a.u.).
For “TCTCCAGCCGCTCACCGCTGTCTCTCTCCCTCCTCACAACCGGAGTCACCTAGTGCAG”, the binding signal was 8390 fluorescence intensity (a.u.).
As for “TCCACCCCAGCCGTCGACGCCGCCGTCACCCACCCGCAACCGGAGTCACCTAGTGCAG”, the figure is 9110 fluorescence intensity (a.u.).
Then “AACCCTATCGCCGCCCCATTCGCCTGCTCGAGACCACCAACGGAGTCACCTAGTGCAG”, with 10900 fluorescence intensity (a.u.); and “AAATAAAGCAATGGAAGTAAAGTCAACAGGGAGGGTAAAACGGAGTCACCTAGTGCAG”, with 8290 fluorescence intensity (a.u.).
Then “CCTTTGCTCCTGCTGCTGCTTTGTTGCTTGCTTCCCTACACGGAGTCACCTAGTGCAG”, with 11400 fluorescence intensity (a.u.); and “GATTACCCTGTTGCATTGTTATACTAATTATACGGTCACACGGAGTCACCTAGTGCAG”, with 8370 fluorescence intensity (a.u.).
On to “TATGGGTCCAAGAGTTTAGGTGTAGGGTCTTCTCTCTTTTCGGAGTCACCTAGTGCAG”, for which the binding signal was 9320 fluorescence intensity (a.u.).
In the case of “AGTTCAGGGACCTTTGGTGTACTTTTTCCTTATTGTTAATCGGAGTCACCTAGTGCAG”, the binding signal was 9130 fluorescence intensity (a.u.).
For “GATCTCCTCGACCTGCTATGCTCATCCCGTCGAAAAGTTCCGGAGTCACCTAGTGCAG”, the binding signal is 9010 fluorescence intensity (a.u.).
Then “ACTACTACTCCTCCTATATCACTGGTTCTTTCTTGCAAAGCGGAGTCACCTAGTGCAG”, with 8900 fluorescence intensity (a.u.); and “AATGACACACAACAAGTTACTATTATCACTGTAGCACGAACGGAGTCACCTAGTGCAG”, with 10200 fluorescence intensity (a.u.).
Then “ATGGAGTATATGTGTTTTGTAGATTGCAACTTAGAAATGGCGGAGTCACCTAGTGCAG”, with 8680 fluorescence intensity (a.u.).
As for “GTCATCCTGTTTCACTGCTAGCTCTCCCTAAATTTTGAAACGGAGTCACCTAGTGCAG”, the figure is 8490 fluorescence intensity (a.u.); as for “TAATCGATCTGCTCCTGTACTCATGTGGTAGGTTATTCTACGGAGTCACCTAGTGCAG”, 8710 fluorescence intensity (a.u.).
For the sequence “AGTTGCAGTGTTTCCCTATCAAGTATCAATCGCGAGCTGCCGGAGTCACCTAGTGCAG”, the binding signal is 8810 fluorescence intensity (a.u.).
As for “ACCACGATGTGTCACCCCACCCCACCACCGCCCGCTGCTCCGGAGTCACCTAGTGCAG”, the figure is 9690 fluorescence intensity (a.u.); as for “CGGTTATCTTTTGCCATAATTACTTTTTGTAAAACCAACTCGGAGTCACCTAGTGCAG”, 9840 fluorescence intensity (a.u.).
For the sequence “TTCTTCCCACCTTCCTATTTACACATTCAATTTTATTCATCGGAGTCACCTAGTGCAG”, the binding signal is 8250 fluorescence intensity (a.u.).
As to “ATCCAAGTTTATAATACATCATTTTCTACATTATTTCATCCGGAGTCACCTAGTGCAG”, the binding signal is 9060 fluorescence intensity (a.u.).
As for “GCGCTTCGATTTGGTTTGGTTTGATTCGGTTTGCGAGATGCGGAGTCACCTAGTGCAG”, the binding signal is 8780 fluorescence intensity (a.u.).
Then “ACCATATGTTTTTTCATCTAAGGCCTTGTTTAGATTTAAACGGAGTCACCTAGTGCAG”, with 9290 fluorescence intensity (a.u.).
Take “CTGGATTGTCCCCAAATCCCTTCGTACACTTTCTCCAGCCCGGAGTCACCTAGTGCAG”: the binding signal was 9330 fluorescence intensity (a.u.).
Consider “AAAATTATTTTATTTCCTTCTCACTAGGTGTTGTTCTTTTCGGAGTCACCTAGTGCAG”, for which the binding signal is 8680 fluorescence intensity (a.u.).
As for “CCGTGATCCTGCTGCCGTCGTCCACCGCCACGCTCTCTCCCGGAGTCACCTAGTGCAG”, the figure is 8150 fluorescence intensity (a.u.); as for “CTCCGTCTTGTGTGTTTGTTCGTTTGGACGGTTAGTGCGTCGGAGTCACCTAGTGCAG”, 10300 fluorescence intensity (a.u.).
“TTTGTTATTCCCACGATGTTATTTGTTCAGTTCTTGCTATCGGAGTCACCTAGTGCAG”: the binding signal is 8900 fluorescence intensity (a.u.).
Then “ACCTCCATGTTGGTAATGTGACATGTCCTTCTACATATGCCGGAGTCACCTAGTGCAG”, with 11500 fluorescence intensity (a.u.); and “ATTGTGGTTCAGACTTAGAAGACCTTTTACCTTTATTGTTCGGAGTCACCTAGTGCAG”, with 9600 fluorescence intensity (a.u.).
Then “ACCCTCACTCCCACTCACAAACACACACAATTTAGCTTAGCGGAGTCACCTAGTGCAG”, with 8580 fluorescence intensity (a.u.).
As for “TGTCACATTCGTTTTACTCTCTCCGGACACATCTCTTTCTCGGAGTCACCTAGTGCAG”, the figure is 14500 fluorescence intensity (a.u.); as for “CCGTCTCCTCGCTTTCCGCCGGCGCCGATCTCCATCCTACCGGAGTCACCTAGTGCAG”, 10900 fluorescence intensity (a.u.); as for “GTAGCCGATGTTTGTGTCTTGAAGCTTCGTACTTCCACTCCGGAGTCACCTAGTGCAG”, 8030 fluorescence intensity (a.u.).
“CTCTTTTCCGTTTTCTTTTCAGGGCGCCGCCTCCTCTTCTCGGAGTCACCTAGTGCAG”: the binding signal is 8930 fluorescence intensity (a.u.).
As for “ATTTTGCTCCGATTGGTGCCTTTTTCTCCTGGAATTTTGTCGGAGTCACCTAGTGCAG”, the figure is 9460 fluorescence intensity (a.u.); as for “ATGGGAGGGCAAGAAAACTAGTAAGGGGCATGGAAAGTCTCGGAGTCACCTAGTGCAG”, 8620 fluorescence intensity (a.u.); as for “GCTCTCAGCTCGATCGATCGGTTGCTACAAATACCAGCCTCGGAGTCACCTAGTGCAG”, 8260 fluorescence intensity (a.u.).
As for “AAAAATCTCCGTATCAACTTATCCGTATTGCCCTACCAGTCGGAGTCACCTAGTGCAG”, the figure is 8740 fluorescence intensity (a.u.); as for “CAATCTGTCGCTCTCCCGCTCCTTAATTAATTAATTAATTCGGAGTCACCTAGTGCAG”, 9600 fluorescence intensity (a.u.).
As for “AATCTCCTAGGCTGTGTTTAGATCTAAACTTCCAACTTTTCGGAGTCACCTAGTGCAG”, the figure is 8750 fluorescence intensity (a.u.).
Take “ACCTGGTTATTTTTTTTGTCAGTCTGGTTGTGTGGTGCAGCGGAGTCACCTAGTGCAG”: the binding signal is 8340 fluorescence intensity (a.u.).
Take “CGGCCGCCGCCTCGTCGTCGATGAGCTCGCCATGGCGCCCCGGAGTCACCTAGTGCAG”: the binding signal is 8840 fluorescence intensity (a.u.).
As to “GTCACTCCACTTTTCCCCACCGCCATCCACTCCCACCTCGCGGAGTCACCTAGTGCAG”, the binding signal was 8510 fluorescence intensity (a.u.).
